{"source": "PubChem BioAssay AID1224826, NIAID | 2016", "assay": "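Regulators of Tlr4 signalling leading to Tnf-alpha expression in macrophages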 (primary screen)", "cell system": "RAW264.7 G9 macrophages from mouse bearing reporters for p65 (GFP) and the Tnf promoter (mCherry)", "knock-down reagent": "siRNA pool against mouse genes, 100 nM", "duration": "16 h of LPS stimulation, after 2 days of siRNA transfection", "treatment": "bacterial lipopolysaccharide (Salmonella minnesota R595), 10 ng/ml", "detection": "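Imaged Tnf reporter mCherry in nuclei, minus background, normalised per plate to the median and expressed as robust z-scores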", "reading the numbers": "Tnf reporter robust z-score: higher = stronger Tnf promoter reporter signal after LPS", "rule for the call": "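Called active when robust z-score is at most -1.3, matching the median of the Tlr4 knock-down control, or over 3; control wells and wells with under 50 cells never active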", "meaning of the calls": "active = Tnf reporter clearly lowered or raised; inactive = no clear change in Tnf reporter", "note": "This is one part, drawn at random, of about 17,000 reagents tested. About 1,110 of them (6.6%) count as active. 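Active means lowered or raised reporter signal; replicate intensities are raw and not normalised per plate.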 A number with no mark means an inactive call. Further read-outs or replicates are left out here."}
{"gene knocked down": "Arhgdig (Rho GDP dissociation inhibitor gamma)", "Tnf reporter robust z-score": -0.9, "fewer than 50 cells in well": "enough cells in well"}
{"gene knocked down": "Aifm1 (apoptosis-inducing factor, mitochondrion-associated 1)", "Tnf reporter robust z-score": 0.25, "fewer than 50 cells in well": "enough cells in well"}
{"gene knocked down": "A830031A19Rik (RIKEN cDNA A830031A19 gene)", "Tnf reporter robust z-score": 0.69, "fewer than 50 cells in well": "enough cells in well"}
{"gene knocked down": "Tnfaip2 (tumor necrosis factor, alpha-induced protein 2)", "Tnf reporter robust z-score": -0.42, "fewer than 50 cells in well": "enough cells in well"}
{"gene knocked down": "Arhgef37 (Rho guanine nucleotide exchange factor 37)", "Tnf reporter robust z-score": 2.2, "fewer than 50 cells in well": "enough cells in well"}
{"gene knocked down": "Vil1 (villin 1)", "Tnf reporter robust z-score": 0.22, "fewer than 50 cells in well": "enough cells in well"}
{"gene knocked down": "Ncaph (non-SMC condensin I complex, subunit H)", "Tnf reporter robust z-score": -0.79, "fewer than 50 cells in well": "enough cells in well"}
{"gene knocked down": "Fbln7 (fibulin 7)", "Tnf reporter robust z-score": 0.53, "fewer than 50 cells in well": "enough cells in well"}
{"gene knocked down": "Acp3 (acid phosphatase 3)", "Tnf reporter robust z-score": 0.52, "fewer than 50 cells in well": "enough cells in well"}
{"gene knocked down": "Mpped1 (metallophosphoesterase domain containing 1)", "Tnf reporter robust z-score": -0.35, "fewer than 50 cells in well": "enough cells in well"}
{"gene knocked down": "Prmt6 (protein arginine N-methyltransferase 6)", "Tnf reporter robust z-score": -0.47, "fewer than 50 cells in well": "enough cells in well"}
{"gene knocked down": "Csk (c-src tyrosine kinase)", "Tnf reporter robust z-score": -0.8, "fewer than 50 cells in well": "enough cells in well"}
